The results in this text go back to PMC7819943, “Rice protein-binding microarrays: a tool to detect cis-acting elements near promoter regions in rice”.

Amino acid sequences for entries named in this document (tags omitted).
UniProt Q0JBA9, entry or part of it: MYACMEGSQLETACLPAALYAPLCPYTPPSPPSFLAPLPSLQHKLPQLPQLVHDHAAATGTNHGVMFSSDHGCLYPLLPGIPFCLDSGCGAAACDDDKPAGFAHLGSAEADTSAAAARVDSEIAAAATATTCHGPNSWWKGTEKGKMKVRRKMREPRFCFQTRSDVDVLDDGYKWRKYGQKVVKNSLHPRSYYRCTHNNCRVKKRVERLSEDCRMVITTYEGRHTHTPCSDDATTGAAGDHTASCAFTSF

The list shows a part of the results.

This assay deals with OsWRKY34 (Oryza sativa, UniProt Q0JBA9 1-250). Description: protein-binding microarray (RPBM); PBS, 2% BSA, 51.3 ng/ul salmon testes DNA, 50 uM zinc acetate, 200 nM TF, 25 C, 1 h; high values mean tight binding. Conditions: protein: recombinant; tags: N-terminal polyhistidine and DsRed monomer fusion (pET32a); label: CyDye5-dUTP incorporated in the synthesized complementary strand; 3' TTTTT single-stranded linker to array surface; dsDNA, one strand shown. In short, it runs like this:
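The binding signal for each feature is its fluorescence intensity in arbitrary units. An Axon 4000B scanner was used to read a custom Agilent array that had been made double-stranded with Cy5-dUTP primer extension, blocked with 2% BSA, incubated at 25 °C for 1 h with 200 nM protein in PBS, 2% BSA, salmon testes DNA and 50 µM zinc acetate, and washed. The protein was an N-terminal polyhistidine–DsRed transcription factor fusion from E. coli BL21-CodonPlus, purified on Ni–NTA.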
With “ACCTAGCTAACTCACTCACTCACTCCTTCTTCTTGCGACCCGGAGTCACCTAGTGCAG”, the binding signal was 10400 fluorescence intensity (a.u.).
Regarding “ATCAGGATCATTCAGTCCACCAAGTTTACATGCCTACATCCGGAGTCACCTAGTGCAG”, the binding signal is 8190 fluorescence intensity (a.u.).
To “CGCGGCATCGTTTGGTGGAGGGGTTGGAGACCGGCTTGGCCGGAGTCACCTAGTGCAG” belongs 8310 fluorescence intensity (a.u.); to “GCCTTTTTCCGAGTTCCGACTGCTTTTCGGCTTTTTTCCCCGGAGTCACCTAGTGCAG”, 13800 fluorescence intensity (a.u.).
Next, “AATCAGTAATCACTGAGTCGTTACTGCTGCTTTCCGGTTGCGGAGTCACCTAGTGCAG”: 8110 fluorescence intensity (a.u.); “ATCGCTGCCTCGCTCACGCACGCGCGCTCTACCTACCTGACGGAGTCACCTAGTGCAG”: 12300 fluorescence intensity (a.u.); “GTTCCTGTACAAATCTCATTTGGTCTCGTTATCTGTTTTACGGAGTCACCTAGTGCAG”: 8840 fluorescence intensity (a.u.).
To “TACCACACACACCTTGTTATATAGCTAGACACACCTTACCCGGAGTCACCTAGTGCAG” belongs 9270 fluorescence intensity (a.u.); to “ATGTTGCCCTTTGTTCTGCTGTTTCCTGGTTATATGGGATCGGAGTCACCTAGTGCAG”, 17500 fluorescence intensity (a.u.); to “CAGCCTAGCAAAAACCCAACTACTGTATACTACAACTGTACGGAGTCACCTAGTGCAG”, 8230 fluorescence intensity (a.u.).
Take “ATTAGCTATCATCATTTTTGGCTTGTTTTTTCGATTACTTCGGAGTCACCTAGTGCAG”: the binding signal was 8850 fluorescence intensity (a.u.).
Next, “TCGTTGGATAATATTTTGTCGCATTGCCTGAGATAATTCCCGGAGTCACCTAGTGCAG”: 8890 fluorescence intensity (a.u.); “TCCAGTCCGTTCACTCCCTTCGCACACGAATCTCAAAGCGCGGAGTCACCTAGTGCAG”: 9830 fluorescence intensity (a.u.).
To “GCTGGGGTTTGATACTACAGGAGATGATCCTGCTCTCATCCGGAGTCACCTAGTGCAG” belongs 11500 fluorescence intensity (a.u.).
Regarding “CATGTTATTACTACCTCGTTTTACGTGAAACACTTTATCTCGGAGTCACCTAGTGCAG”, the binding signal is 8890 fluorescence intensity (a.u.).
To “TGAAGTTTGACATTTCATCCTATAAGTTATTTTGTTGCAACGGAGTCACCTAGTGCAG” belongs 8930 fluorescence intensity (a.u.); to “AAAAGCAGCGCACAACATGTTCATCCATCATCACCTCACCCGGAGTCACCTAGTGCAG”, 8430 fluorescence intensity (a.u.); to “CCAACCTTCAGACCAGCGCCATAACTGCCTCACATCTCACCGGAGTCACCTAGTGCAG”, 9180 fluorescence intensity (a.u.).
Turning to “CCGGCGTGTTTGTCCTCTGCACCACTCACCCGCCGGTCAGCGGAGTCACCTAGTGCAG”, the binding signal is 9680 fluorescence intensity (a.u.).
Next, “CGCTTCGTTCTTAAGCTCTCCTGGCTTATTTTTTCTTTTCCGGAGTCACCTAGTGCAG”: 9810 fluorescence intensity (a.u.); “GCCGACATCGCCCATCTTTGCACCTCCGTGACAGGCCACCCGGAGTCACCTAGTGCAG”: 8650 fluorescence intensity (a.u.).
As to “TGTTTCCGTATTCGTGTCCGATCATATTCGATTCTTATTCCGGAGTCACCTAGTGCAG”, the binding signal was 12700 fluorescence intensity (a.u.).
Turning to “ATTTTCTGCTGTATTTTGACAACTTTAGTGTCCCATTTATCGGAGTCACCTAGTGCAG”, the binding signal is 9870 fluorescence intensity (a.u.).
Next, “GTCACCACTCACCACTCTGCTAAGGCGCGCGTCAGTCAACCGGAGTCACCTAGTGCAG”: 10500 fluorescence intensity (a.u.).
Next, “GTTATTCCTAACAACTCCACTATTTCTTTGGCTCCTAAGCCGGAGTCACCTAGTGCAG”: 9590 fluorescence intensity (a.u.); “CGGGACAGGGAAGGTAGAATCAGCTTTCGTTGACCCGCTCCGGAGTCACCTAGTGCAG”: 9310 fluorescence intensity (a.u.).
To “CCACATCTTCTTACCCTATTGCCACCATCAAGCCTTGCCTCGGAGTCACCTAGTGCAG” belongs 10300 fluorescence intensity (a.u.); to “GGCCGGCCGCGGCGGGTGGTGGGGCAGGGCCTGACGACGACGGAGTCACCTAGTGCAG”, 9650 fluorescence intensity (a.u.).
“GCAATTACGCACCCAATTGTAGCAAGCCACTCGCAAATTTCGGAGTCACCTAGTGCAG”: the binding signal was 8510 fluorescence intensity (a.u.).
Next, “ACTTAGCAGCACTTGTCCCGTTCTCCTGAAGACAGTCCAACGGAGTCACCTAGTGCAG”: 9480 fluorescence intensity (a.u.).
With “CGCCGCCGCCGCCGCCACCTCGCCCTCATCGCTGCGCGCTCGGAGTCACCTAGTGCAG”, the binding signal was 9770 fluorescence intensity (a.u.).
Next, “CATCCACATCATCCTTCTCACCGGTGACGGCGTCCTGGAACGGAGTCACCTAGTGCAG”: 8460 fluorescence intensity (a.u.); “CCTACTAATACTTACTACCTACTCCCTCCGTTCCATGAAACGGAGTCACCTAGTGCAG”: 10200 fluorescence intensity (a.u.).
“GCTATCATTCCGAATTCGTAGTCCTAACAAATATCCCATTCGGAGTCACCTAGTGCAG”: the binding signal was 10600 fluorescence intensity (a.u.).
To “TCTTTCTTTTAATATATTGGCGTATAATTTTTTTTGCGCGCGGAGTCACCTAGTGCAG” belongs 8250 fluorescence intensity (a.u.); to “AATGTTTGACACCGTTGACTTTTTAGTACGTGTTTGTCCACGGAGTCACCTAGTGCAG”, 30200 fluorescence intensity (a.u.).
To “TGAGCTTCGCGCGCGCGCCGCGGAACTCGAGGGCGGCGCGCGGAGTCACCTAGTGCAG” belongs 13200 fluorescence intensity (a.u.); to “CACTTGGCAGGTGCTTTGACCGGTCAAATGAGGTGGTTTACGGAGTCACCTAGTGCAG”, 11200 fluorescence intensity (a.u.).
To “TGGTTTGGGCTGGTTTCGATTAGCATTTTTTTTACACGCGCGGAGTCACCTAGTGCAG” belongs 16200 fluorescence intensity (a.u.).
“GCCAGCGTCAAGACTCCGCACCCTCCCCGCAACCTCTGAACGGAGTCACCTAGTGCAG”: the binding signal is 8570 fluorescence intensity (a.u.).
As to “GCTCCGCCGGTCATCCGCTTTGCCCCGCCCCGCTGCTCTGCGGAGTCACCTAGTGCAG”, the binding signal was 11300 fluorescence intensity (a.u.).
To “CAACTCCGCGCCACGCGCCTTGCTCGTGCCGCGCCACCGTCGGAGTCACCTAGTGCAG” belongs 8940 fluorescence intensity (a.u.).
